No constants are given. Whether binding was seen depends on the method and setting. In cells and extracts the contact can be indirect.

In publication PMC11991916 one finds binding data, which are given here for one molecule.

In this experiment the target is PHB2–DK (prohibitin 2 fused to the fluorescent protein Dreiklang, expressed from the native genomic locus) (human), Q99623. Briefly: co-IP; GFP-Trap agarose beads (nanobody against DK) mixed with 800 µg extract of mitochondria isolated from PHB1-DK or PHB2-DK knock-in U2OS cells; 20 mM Tris-HCl pH 7.5, 50 mM NaCl, 0.5 mM EDTA, 10% glycerol, 0.3% digitonin; 4 °C, 1 h; ten washes; western blot. As to conditions: remark: other sources report otherwise. For orientation: A western blot detects proteins with antibodies after separation by electrophoresis.

B1: ATP5A, P25705 44-553 (protein)
chain: QKTGTAEMSSILEERILGADTSVDLEETGRVLSIGDGIARVHGLRNVQAEEMVEFSSGLKGMSLNLEPDNVGVVVFGNDKLIKEGDIVKRTGAIVDVPVGEELLGRVVDALGNAIDGKGPIGSKTRRRVGLKAPGIIPRISVREPMQTGIKAVDSLVPIGRGQRELIIGDRQTGKTSIAIDTIINQKRFNDGSDEKKKLYCIYVAIGQKRSTVAQLVKRLTDADAMKYTIVVSATASDAAPLQYLAPYSGCSMGEYFRDNGKHALIIYDDLSKQAVAYRQMSLLLRRPPGREAYPGDVFYLHSRLLERAAKMNDAFGGGSLTALPVIETQAGDVSAYIPTNVISITDGQIFLETELFYKGIRPAINVGLSVSRVGSAAQTRAMKQVAGTMKLELAQYREVAAFAQFGSDLDAATQQLLSRGVRLTELLKQGQYSPMAIEEQVAVIYAGVRGYLDKLEPSKITKFENAFLSHVVSQHQALLGTIRADGKISEQSDAKLKEIVTNFLAGFEA
B1: the binding result is “no binding”.
